The other results are listed elsewhere or left out. Repeats are few or missing, and single values can be far off.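 Cells were imaged in 1,536-well plates, and nuclei stained with an antibody against cleaved PARP were counted against all DNA-stained nuclei to give the apoptosis fraction. Screening doses were chosen to leave most cells alive, and resting and induced cleaved-PARP levels differ strongly between cell lines.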

For this assay, the system named is CBRC014 (line from a melanoma biopsy). Briefly: cleaved PARP positive nuclei fraction relative to DMSO control; melanoma cells; higher = more apoptosis. The conditions noted are these: library dose: low library concentration; 72 h.
For the molecule `CC(C)C[C@H](NC(=O)[C@H](Cc1ccccc1)NC(=O)c1cnccn1)B(O)O` [Bortezomib] + O=C(O)c1ccc(-c2c[nH]c3ncc(-c4ccccc4)cc23)cc1C1CCCC1 [GSK650394] (first compound 0.001 µM, partner dose 0.16 µM), the “cleaved PARP positive nuclei fraction” value amounted to 251%.

On to `C[C@@H](Oc1cc(-c2cnn(C3CCNCC3)c2)cnc1N)c1c(Cl)ccc(F)c1Cl` [Crizotinib] + C[C@@H]1CCN(C(=O)CC#N)C[C@@H]1N(C)c1ncnc2[nH]ccc12 [CP690550] (first compound 0.2 µM, partner dose 1 µM), for which the “cleaved PARP positive nuclei fraction” value was found to be 69.3%.

For `CC(C)C[C@H](NC(=O)[C@H](Cc1ccccc1)NC(=O)c1cnccn1)B(O)O` [Bortezomib] + Cc1cc(N2CCOCC2)cc2[nH]c(-c3c(NC[C@@H](O)c4cccc(Cl)c4)cc[nH]c3=O)nc12 [BMS536924] (first compound 0.001 µM, partner dose 0.2 µM), the “cleaved PARP positive nuclei fraction” value was found to be 275%.

Turning to `Nc1ccn([C@@H]2O[C@H](CO)[C@@H](O)C2(F)F)c(=O)n1` [gemcitabine] + CC(C)(C)c1cnc(CSc2cnc(NC(=O)C3CCNCC3)s2)o1 [SNS-032] (first compound 0.0004 µM, partner dose 0.01 µM), the “cleaved PARP positive nuclei fraction” value is 141%.

Regarding `CCCS(=O)(=O)Nc1ccc(F)c(C(=O)c2c[nH]c3ncc(Cl)cc23)c1F` + C=CCn1c(=O)c2cnc(Nc3ccc(N4CCN(C)CC4)cc3)nc2n1-c1cccc(C(C)(C)O)n1 [MK1775] (first compound 0.08 µM, partner dose 0.02 µM), the “cleaved PARP positive nuclei fraction” value came out at 133%.

In the case of `Nc1ccn([C@@H]2O[C@H](CO)[C@@H](O)C2(F)F)c(=O)n1` [gemcitabine] + CC1(C)NC(=O)N(c2ccc([N+](=O)[O-])c(C(F)(F)F)c2)C1=O [nilutamide] (first compound 0.0004 µM, partner dose 1 µM), the “cleaved PARP positive nuclei fraction” value is 118%.

Take `CC(C)C[C@H](NC(=O)[C@H](Cc1ccccc1)NC(=O)c1cnccn1)B(O)O` [Bortezomib] + Cc1ccc(NC(=O)c2cccc(N(C)C)c2)cc1NC(=O)c1ccc(O)cc1 [ZM336372] (first compound 0.001 µM, partner dose 2 µM): the “cleaved PARP positive nuclei fraction” value was determined as 549%.

In the case of `CCCS(=O)(=O)Nc1ccc(F)c(C(=O)c2c[nH]c3ncc(Cl)cc23)c1F` + CN(NC(=O)CC(=O)NN(C)C(=S)c1ccccc1)C(=S)c1ccccc1 [STA4783] (first compound 0.08 µM, partner dose 0.006 µM), the “cleaved PARP positive nuclei fraction” value came to 939%.

For the molecule `O=C(O)[C@@H]1[O][Sb](=[O])([O][Sb]2(=[O])[O][C@H]([C@H](O)CO)[C@H](O)[C@H](C(=O)O)[O]2)[O][C@H]([C@H](O)CO)[C@@H]1O` (stereo partly specified) [stibogluconate] + C[C@@H]1CCN(C(=O)CC#N)C[C@@H]1N(C)c1ncnc2[nH]ccc12 [CP690550] (first compound 2 µM, partner dose 1 µM), the “cleaved PARP positive nuclei fraction” value amounted to 72.8%.

As to `C=C(c1ccc(C(=O)O)cc1)c1cc2c(cc1C)C(C)(C)CCC2(C)C` [Bexarotene] + Cc1ccc(NC(=O)c2cccc(N(C)C)c2)cc1NC(=O)c1ccc(O)cc1 [ZM336372] (first compound 2 µM, partner dose 2 µM), the “cleaved PARP positive nuclei fraction” value amounted to 151%.

As to `Cc1cc(Nc2cc(N3CCN(C)CC3)nc(/C=C/c3ccccc3)n2)n[nH]1` + CO[C@@H]1[C@H](N(C)C(=O)c2ccccc2)C[C@H]2O[C@]1(C)n1c3ccccc3c3c4c(c5c6ccccc6n2c5c31)C(=O)NC4 [Midostaurin] (first compound 0.04 µM, partner dose 0.08 µM), the “cleaved PARP positive nuclei fraction” value was found to be 88.2%.
